The values that follow come from article PMC6994221.

By UniProt entry, the sequences of proteins in these tests, tags left out.
UniProt P68106: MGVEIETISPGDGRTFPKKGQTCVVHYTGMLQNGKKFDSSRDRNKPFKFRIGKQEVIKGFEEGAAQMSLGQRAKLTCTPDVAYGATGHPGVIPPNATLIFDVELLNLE

The experiment addresses type II ryanodine receptor (RyR2) (rat (endogenous in Wistar rat ventricular myocytes)) (UniProt B0LPN4). The experiment in a line: Western blot of permeabilized myocytes after incubation with the purified protein; saponin-permeabilized rat ventricular myocytes exposed 10 min to 10 µmol/L FKBP12 or FKBP12.6, without or followed by the phosphorylation cocktail; sample buffer added directly to the cells; blot probed with anti-FKBP12; calsequestrin and RyR as loading controls; only the binder purified. In general terms: In western blotting, separated proteins are transferred to a membrane and probed.

Results are given in words; binding and its absence hold for the method and conditions named. Some entries that bind do so weakly or less than the wild type.

For the substance “human FKBP12 (from UniProt P62942 1-108)”, the binding result is on record as “binds”. For the substance “human FKBP12.6 (from UniProt P68106 1-108)”, the binding result was “binds”.
